# In US7329518B2, “Enzyme for producing optically active pyridineethanol derivatives” (Kaneka Corporation, priority 1999, dated 2008):
# At least one compound was matched to its structure with a doubt left.
# System: FPDH
# Assay: Behaviors of FPDH against inhibitors (reducing activity measurement with added compounds and metal salts)
# Format: biochemical, Candida maris IFO 10003
# Conditions: inhibitor 0.5 mM; activity without inhibitor = 100%; 1 mM 5-acetylfuro[2,3-c]pyridine, 0.25 mM NADH, pH 6.5, 30° C.
structure (smiles),measurement,value
O=C1NC(=O)C(c2ccccc2)(c2ccccc2)N1 [Diphenylhydantoin],Relative activity,102%
